According to PMC9016710:
Results are given in words; binding and its absence hold for the method and conditions named. In cells and extracts the contact can be indirect. Binding can be weak; no strength is given.

By UniProt entry, the sequences of proteins in these tests, tags left out. Where a name states a change or a piece, a line headed by the entry shows the natural chain unless it says otherwise.
UniProt A0A8T8BZN3: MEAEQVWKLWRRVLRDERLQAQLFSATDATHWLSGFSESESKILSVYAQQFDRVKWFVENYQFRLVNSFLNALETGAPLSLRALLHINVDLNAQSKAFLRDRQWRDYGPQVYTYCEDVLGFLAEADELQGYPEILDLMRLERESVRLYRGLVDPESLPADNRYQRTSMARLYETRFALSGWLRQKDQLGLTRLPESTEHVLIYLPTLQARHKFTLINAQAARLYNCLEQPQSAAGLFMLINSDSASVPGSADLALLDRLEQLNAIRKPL

Molecular target: His6-TglH (monomer seen in native MS) (Pseudomonas syringae pv. maculicola str. ES4326)
Assay: native MS; purified TglHI (His6-TglH coexpressed and co-purified with TglI) observed as intact heterodimer; both purified

In the case of “TglI (monomer seen in native MS) (from UniProt A0A8T8BZN3)”, the binding is reported as “binds”.
